# Structures can show the parent of a compound that is named as a salt. This is one part of the list. The numbers are fractions of the control, whatever unit the source prints. Most values lie at the level of the controls, where differences are scatter.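 A lentiviral reporter stably expressed in MIN6 mouse insulinoma beta cells uses Pdx1 and Ins1 promoters to drive separate nucleus-targeted fluorescent proteins; automated imaging with Hoechst nuclear stain counted cells. Possible hits were drugs shifting Ins1 promoter signal more than two median absolute deviations from DMSO controls, with Pdx1 activity roughly normal.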
# Tested on: MIN6
# Test: % Pdx1+ Ins1-low (RFP-only, immature) cells relative to DMSO control (fold of DMSO control); higher = more immature Pdx1+/Ins1-low cells
# Details: 8.5 µM; 48 h; glucose 5 mM
row,SMILES,% Pdx1+ Ins1-low
1,CCC(C)(CN(C)C)OC(=O)c1ccccc1 (stereo not given) [Amyleine hydrochloride],1.2
2,CC(=C(CCO)SSCC1CCCO1)N(C=O)Cc1cnc(C)nc1N (stereo in doubt) [Fursultiamine Hydrochloride],0.634
3,CNC1(C)C2CCC(C2)C1(C)C (stereo not given) [Mecamylamine hydrochloride],0.916
4,CC1=C(C(=O)O)N2C(=O)[C@@H](NC(=O)[C@H](N)c3ccc(O)cc3)[C@H]2SC1 [Cefadroxil],1.32
5,CC(C)(Oc1ccc(C2CC2(Cl)Cl)cc1)C(=O)O (stereo not given) [Ciprofibrate],1.09
6,CCn1cc(C(=O)O)c(=O)c2cc(F)c(N3CCNCC3)cc21 [Norfloxacin],0.868
7,CCOC(=O)C1=C(C)NC(C)=C(C(=O)OC)C1c1cccc([N+](=O)[O-])c1 (stereo not given) [Nitrendipine],0.687
8,NS(=O)(=O)c1cc2c(cc1C(F)(F)F)NC(Cc1ccccc1)NS2(=O)=O (stereo not given) [Bendroflumethiazide],0.318
9,CC(CN1c2ccccc2Sc2ccccc21)N(C)C (stereo not given) [Promethazine hydrochloride],0.804
10,O=C(c1ccc(OCCN2CCCCC2)cc1)c1c(-c2ccc(O)cc2)sc2cc(O)ccc12 [Raloxifene hydrochloride],0.957
11,COc1cc(N)c(Cl)cc1C(=O)NC1CCN(Cc2ccccc2)CC1 [Clebopride maleate],1.09
12,CCCCOc1ccc(OCCCN2CCOCC2)cc1 [Pramoxine hydrochloride],0.973
13,CC1CCc2cc(F)cc3c(=O)c(C(=O)O)cn1c23 (stereo not given) [Flumequine],1
14,O=C(NCC1CCCCN1)c1cc(OCC(F)(F)F)ccc1OCC(F)(F)F (stereo not given) [Flecainide acetate],1.26
15,COc1c(O)cc2c(c1O)[C@@H]1O[C@H](CO)[C@@H](O)[C@H](O)[C@H]1OC2=O [Bergenin monohydrate],0.666
16,Cc1c(OCC(F)(F)F)ccnc1C[S+]([O-])c1nc2ccccc2[nH]1 (stereo not given) [Lansoprazole],0.633
17,CC(C)(C)NCC(O)c1ccc(O)c(CO)c1 (stereo not given) [Salbutamol],0.816
18,O=C(O)CNC(=O)C(CS)Cc1ccccc1 (stereo not given) [Thiorphan],0.805
19,CN(C)CCCC1(c2ccc(F)cc2)OCc2cc(C#N)ccc21 (stereo not given) [Citalopram Hydrobromide],1.27
20,COC1=CC(=O)C[C@@H](C)[C@]12Oc1c(Cl)c(OC)cc(OC)c1C2=O [Griseofulvin],0.917
21,COc1cc(N)c(Cl)cc1C(=O)NC1CCN(CCCOc2ccc(F)cc2)CC1OC (stereo not given) [Cisapride],0.983
22,CN(C)CCC(c1ccc(Cl)cc1)c1ccccn1 (stereo not given) [Chlorpheniramine maleate],1.4
23,Cc1c(NC(C)C)c(=O)n(-c2ccccc2)n1C [Isopyrin hydrochloride],1.23
24,NCCc1cc[nH]n1 [Betazole hydrochloride],0.957

row,SMILES,% Pdx1+ Ins1-low
1,CCCNC(C)C(=O)Nc1c(C)csc1C(=O)OC (stereo not given) [Articaine hydrochloride],0.857
2,"Cc1cn([C@H]2C[C@H](N=[N+]=[N-])[C@@H](CO)O2)c(=O)[nH]c1=O [Zidovudine, AZT]",0.668
3,COc1ccc([C@@H]2Sc3ccccc3N(CCN(C)C)C(=O)[C@@H]2OC(C)=O)cc1 [Diltiazem hydrochloride],0.664
4,CN(C)CCN(Cc1ccc(Cl)cc1)c1ccccn1 [Chloropyramine hydrochloride],0.785
5,COc1ccc2c(c1)C(=O)N(CCc1ccc(S(=O)(=O)NC(=O)NC3CCCCC3)cc1)C(=O)C2(C)C [Gliquidone],0.847
6,CC(C[N+](C)(C)C)OC(N)=O (stereo not given) [Bethanechol chloride],0.662
7,CNCCC=C1c2ccccc2C=Cc2ccccc21 [Norcyclobenzaprine],1.05
8,NC(=O)c1ccc[n+]([C@@H]2O[C@H](COP(=O)([O-])OP(=O)(O)OC[C@H]3O[C@@H](n4cnc5c(N)ncnc54)[C@H](O)[C@@H]3O)[C@@H](O)[C@H]2O)c1 [Nadide],0.831
9,O=C(CCCN1CCC(O)(c2ccc(Cl)cc2)CC1)c1ccc(F)cc1 [Haloperidol],1.23
10,Cc1ccc(C)c(OCCCC(C)(C)C(=O)O)c1 [Gemfibrozil],0.773
11,COCCOC(=O)C1=C(C)NC(C)=C(C(=O)OC(C)C)C1c1cccc([N+](=O)[O-])c1 (stereo not given) [Nimodipine],1.26
12,CN1C(C(=O)Nc2ccccn2)=C(O)c2ccccc2S1(=O)=O [Piroxicam],1.05
13,NC(=O)OCC(O)COc1ccc(Cl)cc1 (stereo not given) [Chlorphensin carbamate],0.95
14,CC1(C)S[C@@H]2[C@H](NC(=O)[C@H](N)c3ccccc3)C(=O)N2[C@H]1C(=O)OC1OC(=O)c2ccccc21 (stereo not given in full) [Talampicillin hydrochloride],0.924
15,O=c1[nH]c(=O)n([C@H]2C[C@H](O)[C@@H](CO)O2)cc1C(F)(F)F [Trifluridine],0.707
16,Cc1nnc(SCC2=C(C(=O)O)N3C(=O)[C@@H](NC(=O)Cn4cnnn4)[C@H]3SC2)s1 [Cefazolin sodium salt],0.866
17,COc1ccc2c3c1O[C@H]1C[C@@H](O)C=C[C@@]31CCN(C)C2 [Galanthamine hydrobromide],1.42
18,CC(C)NC(=N)NC(=N)Nc1ccc(Cl)cc1 [Proguanil hydrochloride],1.01
19,CC(=O)CC(c1ccc([N+](=O)[O-])cc1)c1c(O)c2ccccc2oc1=O (stereo not given) [Acenocoumarol],1.09
20,CCCCCCCCNC(C)C(O)c1ccc(SC(C)C)cc1 (stereo not given) [Suloctidil],0.576
21,Cc1cccc(Nc2ccncc2S(=O)(=O)NC(=O)NC(C)C)c1 [Torsemide],0.657
22,NCCC(=O)NCCc1c[nH]cn1 [Carcinine],0.771
23,COc1cc2ccc(=O)oc2cc1O [Scopoletin],0.535
24,CC[N+](CC)(CC(=O)Nc1c(C)cccc1C)Cc1ccccc1 [Denatonium benzoate],0.686

# Quoted at random: 6 compounds from above
row,SMILES,% Pdx1+ Ins1-low
4,CN(C)CCN(Cc1ccc(Cl)cc1)c1ccccn1 [Chloropyramine hydrochloride],0.785
12,CN1C(C(=O)Nc2ccccn2)=C(O)c2ccccc2S1(=O)=O [Piroxicam],1.05
3,COc1ccc([C@@H]2Sc3ccccc3N(CCN(C)C)C(=O)[C@@H]2OC(C)=O)cc1 [Diltiazem hydrochloride],0.664
18,CC(C)NC(=N)NC(=N)Nc1ccc(Cl)cc1 [Proguanil hydrochloride],1.01
15,O=c1[nH]c(=O)n([C@H]2C[C@H](O)[C@@H](CO)O2)cc1C(F)(F)F [Trifluridine],0.707
1,CCCNC(C)C(=O)Nc1c(C)csc1C(=O)OC (stereo not given) [Articaine hydrochloride],0.857

# (more compounds)

row,SMILES,% Pdx1+ Ins1-low
1,C=N[C@@H](C(=O)N[C@@H]1C(=O)N2[C@@H]1SC(C)(C)[C@@H]2C(=O)O)c1ccccc1 [Metampicillin sodium salt],1.26
2,COc1cc(NS(=O)(=O)c2ccc(N)cc2)nc(OC)n1 [Sulfadimethoxine],1.51
3,CC1=C(C(=O)O)N2C(=O)[C@@H](NC(=O)[C@H](N)c3ccccc3)[C@H]2SC1 [Cephalexin monohydrate],0.837
4,CC(C)(C)NCC(O)COc1cccc2c1CC(O)C(O)C2 (stereo not given) [Nadolol],1.52
5,COc1ccc2cc3[n+](cc2c1OC)CCc1cc2c(cc1-3)OCO2 [Berberine chloride],1.46
6,COc1ccc2c(c1)c(CC(=O)OCC(=O)O)c(C)n2C(=O)c1ccc(Cl)cc1 [Acemetacin],0.946
7,"O=C1C(O)=C(O)C(=O)C(O)=C1O [Tetrahydroxy-1,4-quinone monohydrate]",0.753
8,NC(=O)c1cc[n+](CC2=C(C(=O)[O-])N3C(=O)[C@@H](NC(=O)Cc4cccs4)[C@H]3SC2)cc1 [Cefalonium],0.765
9,Cc1nccn1CC1CCc2c(c3ccccc3n2C)C1=O (stereo not given) [Ondansetron Hydrochloride],0.678
10,CC(=O)O[C@]1(C(C)=O)CC[C@H]2[C@@H]3C=C(C)C4=CC(=O)CC[C@]4(C)[C@H]3CC[C@@]21C [Megestrol acetate],0.485
11,Cc1cccc(C)c1NC(=O)CN1CCN(CCCC(c2ccc(F)cc2)c2ccc(F)cc2)CC1 [Lidoflazine],1.45
12,Nc1nc(=O)[nH]cc1F [Flucytosine],0.78
13,N=C(N=C(N)N)N1CCOCC1 [Moroxidine hydrochloride],0.686
14,C[C@@H]1O[C@@H](O[C@H]2[C@H](Oc3cc(O)c4c(c3)O[C@H](c3ccc(O)cc3)CC4=O)O[C@H](CO)[C@@H](O)[C@@H]2O)[C@H](O)[C@H](O)[C@H]1O [Naringin hydrate],0.545
15,O=C(Nc1ccccc1)OCC(CN1CCCCC1)OC(=O)Nc1ccccc1 (stereo not given) [Diperodon hydrochloride],0.762
16,CC(=O)Nc1ccc(OCC(O)CNC(C)C)cc1 (stereo not given) [Practolol],1.05
17,CCCC(=O)Nc1ccc(OCC(O)CNC(C)C)c(C(C)=O)c1 (stereo not given) [Acebutolol hydrochloride],0.729
18,N=C(N)N1CCc2ccccc2C1 [Debrisoquin sulfate],0.907
19,CC(=O)/N=c1/sc(S(N)(=O)=O)nn1C [Methazolamide],0.689
20,CCCCOC(=O)c1ccc(O)cc1 [Butylparaben],0.677
21,O=C(CCCCC(=O)Nc1c(I)cc(I)c(C(=O)O)c1I)Nc1c(I)cc(I)c(C(=O)O)c1I [Iodipamide],1.05
22,"O=C(O)Cc1cc(I)c(Oc2ccc(O)c(I)c2)c(I)c1 [Tiratricol, 3,3',5-triiodothyroacetic acid]",1.25

# Source: the supplement of paper PMC4807443
